Assay results from PubChem BioAssay AID504467 (National Center for Advancing Translational Sciences (NCATS), 2011).
Among all 330,000 compounds or so, about 7,700 (2.3%) were called active. The inconclusive results got no clear call from the source; some entries with a clear call stand among them for comparison. Calls come from the whole dose curve; as a rule, active = well fitted inhibition curve with a large enough effect; inconclusive = small, poorly fitted or top-dose-only effect, or effect the other way; inactive = flat fitted curve, though single readings scatter. Potencies beside an inconclusive call are fits to weak or partial responses and may not hold up.

assay: qHTS screen for small molecules that inhibit ELG1-dependent DNA repair in human embryonic kidney (HEK293T) cells expressing luciferase-tagged ELG1; details: HEK293T ELG1-luciferase reporter, luminescence, 16 h, DNA damage induced by 5-fluorouridine; series mostly up to 46.1 µM; note: nearly all actives have a fitted effect of over 55% in size
How it was run: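 Luminescence from the luciferase reporter, measured 30 min after ONE-Glo reagent at room temperature, was the read-out. Beforehand, 2,000 cells per well were exposed for 16 hr at 37 °C to 5-fluorouridine together with compound or vehicle.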
Potency is the fitted concentration of half-maximal effect.

Structure (SMILES)	Potency
Cc1ccc(/C=C2/NC(=O)N(Cc3ccc(Br)cc3)C2=O)o1	inconclusive: 13 µM [activator, partial curve]
CCCCn1c2ccccc2c2nnc(SCC(=O)NC3=NN=C(c4ccccc4)CS3)nc21	inconclusive: 2.59 µM [inhibitor, full curve]
Cc1ccsc1C(=O)OC(C)C(=O)NC1CCCCC1C (stereo not drawn)	inactive
O=C(CN1CCC(NC(=O)Cc2ccccc2)CC1)Nc1ccccc1Br	inconclusive: 29.1 µM [inhibitor, partial curve, poor fit]
CN(C)C(=O)c1cccc(-c2csc(N3CCC(C(N)=O)CC3)n2)c1	inconclusive: 8.2 µM [activator, partial curve]
COc1ccc(CNC(=O)C(=O)NCCC2CCCCN2S(=O)(=O)c2cccs2)cc1 (stereo not drawn)	inconclusive: 16.4 µM [inhibitor, single point]
COc1cccc(NC(=O)c2ccccc2-c2nc(-c3cccc(C)c3)no2)c1	inconclusive: 29.1 µM [inhibitor, single point]
COc1ccc(CNC(=O)COC(=O)c2c(C)nn(-c3ccccc3)c2C)cc1OC	inconclusive: 25.9 µM [inhibitor, single point]
COc1ccc(/C=N/Nc2ccccn2)cc1O	inconclusive: 10.3 µM [activator, partial curve]
CCN1CCN(CCCNC(=O)c2ccc(/C=C3/Oc4ccccc4N(Cc4cccc(C)c4)C3=O)cc2)CC1	inactive
COC(=O)Cn1cc(S(=O)(=O)NCc2ccc(C)cc2)c2cc([N+](=O)[O-])ccc21	inactive
COc1ccc(NC(=O)COc2ccc(/C=N/O)cc2OC)cc1	inconclusive: 7.3 µM [activator, partial curve]
COCCNc1nnc(SCC(=O)Nc2nnc(-c3ccccc3)o2)s1	inactive
CCOC(=O)/C(=C/c1ccc(N2CCC(c3ccccc3)=N2)cc1)C(C)=O	inconclusive: 8.2 µM [activator, partial curve]
Oc1c(C=Nc2cccc3cccnc23)sc2ccccc12	inconclusive: 5.8 µM [activator, full curve]
Nc1nccnc1C(=O)OCC(=O)NCCc1ccc(Cl)cc1	inconclusive: 16.4 µM [inhibitor, partial curve, poor fit]
COc1ccc(S(=O)(=O)N2CCCCC2)cc1NC(=O)c1cnc(C)cn1	inactive
Cc1cc(C)c(C)c(C(=O)c2ccccc2C(=O)O)c1C	inactive
CCOC(=O)CSc1ncnc2c1nnn2-c1ccc(F)cc1	inconclusive: 29.1 µM [activator, single point]
CNc1nc(N)c([N+](=O)[O-])c(Nc2cccc(F)c2)n1	inconclusive: 23.1 µM [activator, single point]
O=C(CCCC(=O)c1ccc(O)cc1)c1ccc(O)cc1	inconclusive: 12.6 µM [activator, partial curve]
CN1C=C/C(=C\c2cc[n+](C)c3ccccc23)c2ccccc21	inconclusive: 6.51 µM [inhibitor, single point]
S=C1NCCNC(=S)NCCOCCOCCOCCN1	inactive

Structure (SMILES)	Potency
CCCCOC(=O)n1c(SCC(=O)N(CC)CC)nc2ccccc21	inconclusive: 20.6 µM [inhibitor, single point]
CC(=O)c1ccc(Oc2ccc(C(C)=O)cc2)cc1	inconclusive: 20.6 µM [activator, partial curve]
Cc1ccc(S(=O)(=O)Nc2ccccc2-c2ccccc2NS(=O)(=O)c2ccc(C)cc2)cc1	inconclusive: 18.4 µM [inhibitor, single point]
CC(C)(C)c1ccc(C2=NC(=O)C(CC(=O)O)S2)cc1 (stereo not drawn)	inconclusive: 18.3 µM [activator, partial curve]
CC(=O)c1c(C)[nH]c(C(=O)Nc2ccc(C)c(S(=O)(=O)N(C)C)c2)c1C	inconclusive: 29.1 µM [activator, single point]
O=C(CSc1ccc2c(c1)OCCO2)N1CCN(c2ccccc2)CC1	inconclusive: 29.1 µM [inhibitor, single point]
COc1ccc(CCNC(=O)CSc2cn(Cc3ccccc3)c3ccccc23)cc1OC	inconclusive: 18.4 µM [inhibitor, single point]
O=C(Nc1ccc(OC(F)(F)F)cc1)C1CCCN(S(=O)(=O)c2cccnc2)C1 (stereo not drawn)	inconclusive: 20.6 µM [inhibitor, single point]
Cc1ccc(NC(=O)COC(=O)c2ccco2)cc1	inactive
CN(CC(=O)Nc1ccc(N2CCOCC2)cc1)CC(=O)Nc1ccc(N2CCOCC2)cc1	inactive
Cc1oc(-c2ccc(Cl)cc2)nc1CN1CCC(C(=O)NCC2CCCO2)CC1 (stereo not drawn)	inactive
COc1ccc(-n2nc(C(=O)NCC(=O)NCCc3ccc(OC)c(OC)c3)c3ccccc3c2=O)cc1Cl	active: 6.51 µM
Cc1c(Cc2ccccc2)c(NCCN(C)C)n2c(nc3ccccc32)c1C#N	inconclusive: 25.9 µM [inhibitor, partial curve, poor fit]
CCn1c(SC(C)C(=O)OC)nnc1-c1c[nH]c2ccccc12 (stereo not drawn)	inactive
c1ccc2c(c1)OCC(c1csc3ncnc(N4CCCC4)c13)O2 (stereo not drawn)	inconclusive: 20.6 µM [inhibitor, partial curve]
O=c1c(-c2cccc(Cl)c2)c[nH]n1-c1ccccc1	inconclusive: 20.6 µM [activator, partial curve]
CN(CC(=O)Nc1ccc(N2CCOCC2)cc1)C(=O)c1cc(S(=O)(=O)N(C)C)ccc1Cl	inconclusive: 20.6 µM [activator, single point]
CCCC(=O)N1c2ccc(-c3csc(N)n3)cc2CC1C (stereo not drawn)	inconclusive: 4.61 µM [activator, partial curve]
O=C(Nc1ccccc1C(=O)N/N=C/c1ccccc1)c1ccco1	inconclusive: 20.6 µM [activator, partial curve]
O=C(NCc1cccnc1)/C(=C/c1ccc(-c2cccc(C(F)(F)F)c2)o1)NC(=O)c1ccccc1	inconclusive: 32.6 µM [inhibitor, partial curve, poor fit]
Cn1c(=O)nc2n(Cc3ccccc3)c3cccc(Cl)c3cc-2c1=O	inactive
O=C(CN1CCCCCC1)NN(Cc1ccccc1)c1ccccc1	inconclusive: 6.51 µM [activator, single point]
COc1cc(CNC(C)c2ccccc2)cc(Br)c1OCc1ccccc1 (stereo not drawn)	inconclusive: 25.1 µM [inhibitor, partial curve, poor fit]

3 entries out of the list, arranged by count of non-hydrogen atoms, ascending.
Structure (SMILES)	Potency
CC(=O)c1ccc(Oc2ccc(C(C)=O)cc2)cc1	inconclusive: 20.6 µM [activator, partial curve]
CCCC(=O)N1c2ccc(-c3csc(N)n3)cc2CC1C (stereo not drawn)	inconclusive: 4.61 µM [activator, partial curve]
CN(CC(=O)Nc1ccc(N2CCOCC2)cc1)C(=O)c1cc(S(=O)(=O)N(C)C)ccc1Cl	inconclusive: 20.6 µM [activator, single point]

(next part)

Structure (SMILES)	Potency
CCOC(=O)c1sc(NC(=O)CSc2nnc(C)s2)c(C(=O)OCC)c1C	inconclusive: 16.4 µM [inhibitor, single point]
O=C(CNC(=O)c1cccc(F)c1)N/N=C/c1cc(Br)ccc1OC(=O)/C=C/c1ccco1	inactive
NC(=O)c1c(NC(=O)C2CCCO2)sc2c1CCCC2 (stereo not drawn)	inconclusive: 18.4 µM [activator, partial curve]
CC(=O)N1Cc2ccccc2C(C)CC12CCCC2 (stereo not drawn)	inconclusive: 9.2 µM [inhibitor, partial curve, poor fit]
CCOc1ccc(S(=O)(=O)N2CCCCC2)cc1NC(=O)Cc1ccsc1	inconclusive: 18.3 µM [inhibitor, single point]
COC(=O)c1ccc(/C=C/c2c(-c3ccc(OC)cc3)sc3ccccc23)cc1	inconclusive: 20.6 µM [activator, partial curve, poor fit]
C(=N\N1CCN(Cc2cccc3ccccc23)CC1)/c1cccs1	inconclusive: 16.4 µM [activator, single point]
Cc1ccc(S(=O)(=O)c2c(COC(=O)c3ccc(Cl)cc3)c(-c3ccccc3)nn2C)cc1	inactive
O=C(OCCN=C1NS(=O)(=O)c2ccccc21)C1CC(=O)N(c2ccc3ccccc3c2)C1 (stereo not drawn)	inactive
OC(c1nnc(-c2ccccc2)o1)c1cccs1 (stereo not drawn)	inconclusive: 7.3 µM [activator, partial curve, poor fit]
N#Cc1ccc(OCC(=O)N/N=C2/CC(c3ccccc3)Oc3ccccc32)cc1 (stereo not drawn)	inactive
Fc1cccc(/C=N/Nc2nncc3ccccc23)c1	inconclusive: 2.06 µM [activator, partial curve]
O=C(/C=C/c1ccc2c(c1)OCO2)N1CCCCC1	inconclusive: 9.2 µM [activator, partial curve]
Cc1ccc(CNC(=O)CCS(=O)(=O)c2cc(Br)cc3c2N(C(=O)C2CC2)CC3)o1	inconclusive: 13 µM [inhibitor, partial curve, poor fit]
CC(C)(O)C#Cc1ccc(C(=O)NC2CCCCC2)s1	inconclusive: 16.4 µM [activator, partial curve]
c1cncc(-c2nc(-c3ccc4c(c3)OCO4)cs2)c1	inconclusive: 6.51 µM [activator, partial curve]
CN1CCN(CC(=O)n2c3c(c4ccccc42)CCCC3)CC1	inactive
O=C(NCc1nnc(SCC(=O)N2CCN(c3ccccc3)CC2)o1)c1ccc(F)cc1	inconclusive: 16.4 µM [inhibitor, partial curve, poor fit]
CC(=O)N(C(C)=O)N1C(=O)c2cccc3c(N4CCOCC4)ccc(c23)C1=O	inactive
CCCOc1ccc(C(O)(CCC)CCN2CCCCC2)cc1 (stereo not drawn)	inactive
CC(C)(C)OC(=O)CN1C(=O)C(Sc2n[nH]c(-c3ccccc3)n2)CCc2ccccc21 (stereo not drawn)	inconclusive: 20.6 µM [inhibitor, single point]
COc1cc(C(=O)Oc2ccc3ccc(O)cc3c2)cc(OC)c1OC	inconclusive: 29.1 µM [inhibitor, single point]
